Binding data for one molecule are collected here from patent publication WO2021110095A1 (dated 2021).

Chains of the proteins cited; added tags and fusions are not shown. Lines headed by an entry give the natural chain unless they say otherwise; changes in a name come on top.
UniProt P51654: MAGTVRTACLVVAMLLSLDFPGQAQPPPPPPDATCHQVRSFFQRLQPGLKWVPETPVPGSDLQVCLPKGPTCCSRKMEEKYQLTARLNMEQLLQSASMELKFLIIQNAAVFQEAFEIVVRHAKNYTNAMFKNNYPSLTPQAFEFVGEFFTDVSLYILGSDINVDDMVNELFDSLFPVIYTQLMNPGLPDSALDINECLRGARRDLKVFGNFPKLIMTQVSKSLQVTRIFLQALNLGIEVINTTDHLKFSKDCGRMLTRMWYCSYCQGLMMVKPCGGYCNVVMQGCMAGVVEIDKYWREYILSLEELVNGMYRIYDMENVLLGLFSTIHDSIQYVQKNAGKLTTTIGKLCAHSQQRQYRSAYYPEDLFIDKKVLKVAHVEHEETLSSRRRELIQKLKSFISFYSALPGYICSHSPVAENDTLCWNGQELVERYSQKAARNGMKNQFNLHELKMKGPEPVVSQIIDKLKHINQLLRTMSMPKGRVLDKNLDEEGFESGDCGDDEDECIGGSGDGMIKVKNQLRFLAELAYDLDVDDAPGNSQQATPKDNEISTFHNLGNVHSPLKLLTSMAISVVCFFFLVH

The assay deals with human GPC3 full-length protein on cells (CHO-K1-hGPC3; cells expressing GPC3) (human) (UniProt P51654). In words: flow cytometry on cells expressing GPC3.

These are yes or no findings as the source states them, for the method shown. Binding can be weak; no strength is given.

B1: humanized antibody Ab9 (antibody, human IgG1, kappa, V domains shown)
VH: QVQLVQSGAEVKKPGASVKVSCKASGYTFTDYEMHWVRQAPGQGLEWMGAIDPKTGRTAYNQKFKDRVTLTADKSTSTAYMELSSLTSEDTAVYYCTRYYSYAYWGQGTLVTVSS
VL: DVVMTQSPLSLSVTPGEPASISCRSSQSLVHSNRNTYLQWYLQKPGQPPQLLIYKVSNRFSGVPDRFSGSGSGTDFTLKISRVEAEDVGVYYCSQSIHVPYTFGQGTKLEIKR
Turning to B1, the binding result is recorded as “binds”.
